Values from PubChem BioAssay AID1259290 (Sanger Institute, 2017).
In all, the deposit lists 794 reagents; shown is an unselected part. In the full data, 9 (1.1%) got an active call. 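Calls rest on knock-down alone, not drug synergy; synergy above 0.15 was grouped apart and does not affect calls.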 Viability is capped at 1. Not all columns of the deposit are shown. Not stated in the record: the amount of reagent, the time to read-out.

Purpose: 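siRNA screen across the kinome seeking synthetic lethal partners for BYL719, cetuximab or trametinib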 (primary screen)
System: human SNUC1 colorectal cancer cells
Reagents: siRNA pool against human genes
Conditions: anchor drugs BYL719 1 µM, cetuximab 5 µg/ml or trametinib 10 nM, or DMSO vehicle alone
Read-out: 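Cell viability relative to a non-targeting siRNA control, replicate-averaged, as robust z-score for knock-down alone, plus a synergy score for each anchor drug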
Scale: viability z-score, siRNA alone: higher = more viable cells; low values mean essential gene; viability vs control, siRNA alone: higher = more viable cells; synergy score with BYL719: higher = stronger synthetic lethal effect with drug
Rule for the call: 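Essential when the robust viability z-score with siRNA alone falls below -3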
Meaning of the calls: active = essential: knock-down alone cut viability (z below -3); inactive = no clear viability loss with knock-down alone

The opening 5 records as a preview:
gene knocked down | viability z-score, siRNA alone | viability vs control, siRNA alone | synergy score with BYL719 | Call
EPHB3 | 0.166 | 0.931 | -0.186 | inactive
CAD | 0.31 | 0.944 | -0.145 | inactive
TJP2 | 0.936 | 1 | 0.162 | inactive
GOLGA5 | 0.189 | 0.933 | -0.137 | inactive
CDK16 | 0.936 | 1 | 0.15 | inactive

The listing, from the start:
gene knocked down | viability z-score, siRNA alone | viability vs control, siRNA alone | synergy score with BYL719 | Call
EPHB3 | 0.166 | 0.931 | -0.186 | inactive
CAD | 0.31 | 0.944 | -0.145 | inactive
TJP2 | 0.936 | 1 | 0.162 | inactive
GOLGA5 | 0.189 | 0.933 | -0.137 | inactive
CDK16 | 0.936 | 1 | 0.15 | inactive
BMAL1 | -1.79 | 0.755 | -0.108 | inactive
TNK2 | 0.936 | 1 | -0.198 | inactive
PRKX | -0.892 | 0.835 | -0.0652 | inactive
PDK3 | 0.936 | 1 | 0.00528 | inactive
FRK | 0.587 | 0.969 | -0.223 | inactive
HCK | -0.303 | 0.888 | -0.146 | inactive
PTGS1 | 0.936 | 1 | -0.172 | inactive
COMMD3 | 0.936 | 1 | -0.159 | inactive
HIPK1 | 0.936 | 1 | -0.198 | inactive
TSSK3 | 0.841 | 0.991 | -0.205 | inactive
MYLK2 | 0.922 | 0.999 | -0.199 | inactive
RPS6KL1 | -1.51 | 0.78 | 0.0347 | inactive
MED12 | -0.712 | 0.852 | -0.192 | inactive
SRPK3 | -1.22 | 0.806 | 0.0153 | inactive
MAPK11 | -1.49 | 0.782 | -0.0639 | inactive
PIK3CA | 0.936 | 1 | -0.0849 | inactive
DGKD | 0.886 | 0.995 | 0.0224 | inactive
TLK2 | 0.936 | 1 | -0.0123 | inactive
CDK5R1 | -0.0843 | 0.908 | 0.0608 | inactive
PI4KA | 0.409 | 0.953 | -0.236 | inactive
SRPK2 | 0.936 | 1 | -0.189 | inactive
CDK9 | -0.197 | 0.898 | -0.0424 | inactive
KCNH8 | 0.115 | 0.926 | -0.238 | inactive
PIP5K1C | -0.981 | 0.827 | 0.0878 | inactive
NEK2 | 0.936 | 1 | -0.0124 | inactive
DYRK4 | -1.29 | 0.8 | -0.185 | inactive
ATRX | 0.936 | 1 | -0.0558 | inactive
DGKA | -0.393 | 0.88 | -0.129 | inactive
LRRK1 | 0.936 | 1 | 0.0566 | inactive
CLK4 | 0.936 | 1 | -0.154 | inactive
ACVR1B | 0.0939 | 0.924 | -0.259 | inactive
MPP2 | 0.675 | 0.976 | 0.0535 | inactive
PXK | -0.347 | 0.884 | -0.107 | inactive
UCK1 | -1.39 | 0.79 | -0.149 | inactive
PTEN | 0.604 | 0.97 | -0.0521 | inactive
STK32C | 0.936 | 1 | -0.196 | inactive
AK2 | 0.936 | 1 | -0.198 | inactive
PIK3CD | 0.936 | 1 | -0.133 | inactive
ADCK2 | -0.185 | 0.899 | -0.154 | inactive
MAPK12 | -0.0201 | 0.914 | -0.191 | inactive
MTOR | 0.936 | 1 | -0.0833 | inactive
AMHR2 | 0.936 | 1 | -0.0284 | inactive
RET | 0.936 | 1 | -0.103 | inactive
MAP3K11 | 0.926 | 0.999 | -0.185 | inactive
STYK1 | -0.39 | 0.881 | -0.182 | inactive
